# In PubChem BioAssay AID493014 (National Center for Advancing Translational Sciences (NCATS), 2011):
# The list shows a part of the results. The main result of the screen is listed elsewhere. These columns were measured beside it and carry no call. The list favours compounds with an active or inconclusive main result. Words in brackets tell the shape of the fitted curve; partial curves, single points and poor fits give uncertain potencies.
# Assay: qHTS Assay to Find Inhibitors of Chronic Active B-Cell Receptor Signaling
# Settings: ABC-DLBCL IkBa-CBG/CBR reporter, luminescence ratio (green luciferase fused to IkBa over red control in TMD8 lymphoma cells), 4 h
# Procedure, shortened: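 Cell line TMD8 (human ABC DLBCL), stably expressing tet-inducible CBG68-IkBa fusion and CBR; IMDM/0.5% FBS; cpd up to 46 uM; dox induction, 4 h, 37C/5% CO2; dual luminescence; green/red ratio; MG132 control.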
# [1] = measured here: CBR red luminescence, cell number
# [2] = measured here: IkBa-CBG green luminescence
SMILES,AC50 [1],AC50 [2]
CC(Oc1cccc(Cl)c1)C(=O)Nc1ccncc1 (centres undefined),"5.01 µM [falling, single point]",–
CCCC1Cc2c(sc(N)c2C#N)CO1 (centres undefined),"12.6 µM [rising, partial curve, poor fit]",–
O=C(/C=C1\NC2(CCCC2)Cc2ccccc21)C(=O)N/N=C/c1ccccc1O,"9.2 µM [rising, partial curve, poor fit]",–
CCN(c1ccccc1)S(=O)(=O)c1ccc(C(=O)Nc2ccccn2)cc1,"29.1 µM [falling, partial curve, poor fit]",–
Cn1ncc2c(NNC(=O)c3ccccc3Cl)ncnc21,"29.1 µM [falling, single point]",–
COc1ccc2nc(NC(=O)Nc3ccccc3OC)sc2c1,"0.562 µM [falling, full curve, poor fit]",–
CN(C)/C=C1/Sc2ccccc2C1=O,"10 µM [falling, partial curve, poor fit]",–
COc1cccc2c1C(=O)c1c(O)c3c(c(O)c1C2=O)C[C@](O)(C(C)=O)C[C@H]3O[C@@H]1C[C@@H](N)[C@@H](O)[C@@H](C)O1,"4.61 µM [falling, full curve]",–
CCOC(=O)c1cnc2ccc(C(=O)OC)cc2c1NCc1ccco1,"23.1 µM [falling, partial curve, poor fit]",–
CCn1c(=N)c(S(=O)(=O)c2ccc(Cl)cc2)cc2c(=O)n3ccccc3nc21,"12.6 µM [rising, partial curve, poor fit]",–
O=C(N/N=C/c1ccsc1)c1cc2ccccc2o1,"8.91 µM [falling, partial curve, poor fit]",–
CCCc1ccc(C(=O)NNc2ccccc2F)cc1,"22.4 µM [falling, partial curve, poor fit]",–
COc1ccc(NC(=O)/C(C#N)=C/c2ccc(Sc3nncn3C)c([N+](=O)[O-])c2)cc1,"35.5 µM [falling, single point]","22.4 µM [falling, single point]"
COc1ccc(-c2[nH]ncc2N=Nc2ccccc2)cc1,"6.31 µM [rising, partial curve, poor fit]",–
COCCN1C(=O)N(c2ccc(Cl)cc2)C(=O)C1CC(=O)Nc1cc(OC)cc(OC)c1 (centres undefined),"12.6 µM [rising, single point]",–
N#CC1=C(N)OC2=C(CCc3ccccc32)C1c1ccccc1Cl (centres undefined),"8.2 µM [falling, partial curve, poor fit]",–
CCOC(=O)C(Cc1ccc(NC(=O)/C(=C/c2ccc(OC(C)=O)cc2)NC(C)=O)cc1)N1C(=O)c2ccccc2C1=O (centres undefined),"10 µM [falling, partial curve, poor fit]",–
Cc1nn(CC(C)C)c(Cl)c1C(=O)N(C)CC(=O)Nc1c(Cl)cccc1Cl,"0.112 µM [rising, full curve, poor fit]",–
CCN1C(=O)c2ccc(C(=O)Nc3cccc(C(=O)O)c3)cc2C1=O,"11.2 µM [falling, partial curve, poor fit]",–
CCc1ccc(CNc2ccc(N3CCN(C(C)=O)CC3)cc2)cc1,"2.06 µM [falling, partial curve, poor fit]",–

SMILES,AC50 [1],AC50 [2]
COc1cccc(NC(=O)CSc2nnc3cc(C)nc(N)n23)c1,"0.708 µM [rising, partial curve, poor fit]",–
COc1ccc(S(=O)(=O)N(C)C[C@H]2Oc3ccc(NS(=O)(=O)c4ccccc4)cc3C(=O)N([C@H](C)CO)C[C@@H]2C)cc1,"14.6 µM [rising, partial curve, poor fit]","9.2 µM [falling, partial curve, poor fit]"
Cc1c(C2(O)CCCCC2)[nH]c2ccc(C(F)(F)F)cc12,"0.461 µM [rising, partial curve, poor fit]",–
CCCN(CCC)S(=O)(=O)c1ccc(C(=O)Nc2nc(-c3ccccc3)c(C(=O)OCC)s2)cc1,–,"23.1 µM [rising, partial curve, poor fit]"
CN(NC1OC(=O)c2ccccc21)c1ncc(Cl)cc1C(F)(F)F (centres undefined),"8.91 µM [rising, partial curve, poor fit]",–
COC(=O)Oc1ccc(/C=N/NC(=O)CSCc2ccccc2Br)cc1OC,"0.461 µM [falling, full curve]",–
Cc1csc(SCC(=O)Nc2nc(-c3ccccc3)cs2)n1,"32.6 µM [falling, partial curve, poor fit]",–
COc1ccc(OC)c(Nc2ncnc3c2cnn3-c2ccc(C)cc2)c1,"1.26 µM [falling, full curve, poor fit]",–
O=C(COC(=O)c1cccc(S(=O)(=O)N2CCCCC2)c1)NC1CCCCC1,"3.66 µM [rising, partial curve]",–
CCC1CCCCN1S(=O)(=O)c1ccc(NC(=O)c2ccncc2)cc1 (centres undefined),"35.5 µM [falling, single point]",–
CC(C)Oc1ccc(/C(O)=C2/C(=O)C(=O)N(CCN(C)C)C2c2ccco2)cc1 (centres undefined),"6.51 µM [falling, single point]",–
Cc1ncc(CO)c2cc(C(N)=O)c(=Nc3ccccc3)oc12,"14.1 µM [falling, partial curve, poor fit]",–
C#CCOCCOCCOCCNc1nc(N2CCN(C(=O)CCCCCCCCCCNC(=O)[C@H](CCCCN)n3cc(CCO)nn3)CC2)nc(N2CCN(C(=O)CCCCCCCCCCNC(=O)[C@H](CCCCN)n3cc(CCO)nn3)CC2)n1,"29.1 µM [rising, single point]","23.1 µM [falling, single point]"
CCOC(=O)COc1ccc2c(=O)c(-c3ccc(OC)c(OC)c3)c(C(=O)OCC)oc2c1,"12.6 µM [falling, partial curve]",–
O=C(N/N=C/c1cccc2cccnc12)c1ccccc1O,"14.1 µM [falling, partial curve, poor fit]","17.8 µM [falling, single point]"
S=C(Nc1ccc2snnc2c1)N1CCN(c2ccccn2)CC1,"10.3 µM [rising, partial curve, poor fit]",–
Cc1noc(C)c1COc1ccc(C(=O)NCC2CCCO2)cc1 (centres undefined),"12.6 µM [rising, partial curve, poor fit]",–
CCN(C(=O)COC(=O)c1ccccc1NC(=O)c1ccco1)C1CCS(=O)(=O)C1 (centres undefined),"12.6 µM [falling, partial curve, poor fit]",–
CNC(=O)c1cccc(NC(=O)C(C)c2ccc3cc(OC)ccc3c2)c1 (centres undefined),"3.55 µM [rising, partial curve, poor fit]","8.91 µM [falling, partial curve]"
CCCc1cc(C(=O)Nc2cccc(Cl)c2)no1,"16.4 µM [falling, single point]",–

SMILES,AC50 [1],AC50 [2]
COc1ccc(C(OCC(O)CNCCc2ccccc2)c2ccc(OC)cc2)cc1 (centres undefined),"25.1 µM [falling, single point]",–
C[C@H](N=C1NS(=O)(=O)c2ccccc21)C(=O)OCc1cc([N+](=O)[O-])cc2c1OCOC2,"5.62 µM [rising, single point]",–
O=C(C[n+]1cn(C(F)F)c2ccccc21)c1ccc(OC(F)F)cc1,"22.4 µM [falling, single point]",–
COc1ccc(C[C@H]2CN3C(=NC[C@H]3Cc3ccccc3)N2CCNC(=O)CCC2CCCCC2)cc1,"15.8 µM [falling, single point]",–
CCc1c(C)nc(SCC(=O)c2cccs2)c(C#N)c1C,"18.4 µM [falling, partial curve]",–
COc1ccc(N(CN2C(=O)C3C4C=CC(C4)C3C2=O)C(=O)c2ccco2)cc1 (centres undefined),"31.6 µM [rising, single point]",–
O=C(NCCNc1ccccc1[N+](=O)[O-])c1ccccc1F,"35.5 µM [falling, single point]",–
O=c1[nH]c2ccccc2n1CCCSc1cnc2ccccc2n1,"6.51 µM [rising, single point]",–
O=C(CSc1nc2ccccc2c(=O)n1-c1ccc(F)cc1)NC1CCS(=O)(=O)C1 (centres undefined),"20.6 µM [rising, partial curve, poor fit]",–
CCN1C(=O)c2cccc3c(N)ccc1c23,"9.2 µM [rising, partial curve]",–
CC1(C)Cc2c(sc(NC(=S)NC(=O)c3ccccc3)c2C(=O)O)CO1,"1.26 µM [falling, full curve, poor fit]",–
COc1ccc(OC(=O)c2cnn(-c3ccccc3)c2C)cc1,"0.651 µM [rising, full curve, poor fit]",–
O=S1(=O)CCC(NC2CCCC2)C1 (centres undefined),"15.8 µM [rising, partial curve, poor fit]",–
COc1cc(OC)c(CNC2CCCCCC2)cc1Br,"11.2 µM [falling, partial curve, poor fit]",–
Cc1ccc(NC(=O)Nc2sc(=S)n(C)c2C)cc1,"11.6 µM [rising, partial curve, poor fit]",–
CC(=O)Nc1ccc(-c2csc(-c3cccnc3)n2)cc1,"11.2 µM [rising, single point]",–
CCOc1ccc2nc(NC(=O)CSc3nc(SC)ns3)sc2c1,"1.41 µM [rising, full curve, poor fit]",–
Cn1c(SCC(=O)Nc2ccc3cn[nH]c3c2)nnc1-c1cnccn1,"35.5 µM [falling, single point]",–
COc1ccc(C(=O)NCc2ccc3c(c2)OCO3)cc1S(=O)(=O)N(C)Cc1ccccc1,"0.0058 µM [falling, full curve, poor fit]",–

# Five compounds already listed, arranged by SMILES length, descending.
SMILES,AC50 [1],AC50 [2]
CCN(C(=O)COC(=O)c1ccccc1NC(=O)c1ccco1)C1CCS(=O)(=O)C1 (centres undefined),"12.6 µM [falling, partial curve, poor fit]",–
O=C(/C=C1\NC2(CCCC2)Cc2ccccc21)C(=O)N/N=C/c1ccccc1O,"9.2 µM [rising, partial curve, poor fit]",–
O=C(C[n+]1cn(C(F)F)c2ccccc21)c1ccc(OC(F)F)cc1,"22.4 µM [falling, single point]",–
COC(=O)Oc1ccc(/C=N/NC(=O)CSCc2ccccc2Br)cc1OC,"0.461 µM [falling, full curve]",–
Cc1c(C2(O)CCCCC2)[nH]c2ccc(C(F)(F)F)cc12,"0.461 µM [rising, partial curve, poor fit]",–
